Laboratory results: article PMC9253731
Results are given in words; binding and its absence hold for the method and conditions named. In cells and extracts the contact can be indirect. These calls come from enrichment with a bait or labelling near it, and not all partners need be listed.

By UniProt entry, the sequences of proteins in these tests, tags left out.
UniProt O00571: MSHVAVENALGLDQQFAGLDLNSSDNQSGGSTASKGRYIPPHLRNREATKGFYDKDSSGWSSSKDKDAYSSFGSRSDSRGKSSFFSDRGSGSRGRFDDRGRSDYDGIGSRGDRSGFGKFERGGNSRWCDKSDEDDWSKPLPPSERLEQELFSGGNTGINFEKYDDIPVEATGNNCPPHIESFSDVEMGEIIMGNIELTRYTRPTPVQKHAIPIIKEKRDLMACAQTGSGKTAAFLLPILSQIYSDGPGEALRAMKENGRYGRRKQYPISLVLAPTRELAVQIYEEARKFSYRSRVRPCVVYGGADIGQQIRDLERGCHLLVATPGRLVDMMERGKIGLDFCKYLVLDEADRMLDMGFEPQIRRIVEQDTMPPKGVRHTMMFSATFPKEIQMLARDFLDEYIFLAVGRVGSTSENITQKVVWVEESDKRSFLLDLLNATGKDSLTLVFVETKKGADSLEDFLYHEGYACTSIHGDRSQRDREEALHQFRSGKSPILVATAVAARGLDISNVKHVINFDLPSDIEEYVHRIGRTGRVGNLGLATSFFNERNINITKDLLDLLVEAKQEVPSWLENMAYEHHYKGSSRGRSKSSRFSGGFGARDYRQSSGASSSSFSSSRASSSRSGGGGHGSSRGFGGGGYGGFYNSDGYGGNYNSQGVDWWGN
UniProt Q13177: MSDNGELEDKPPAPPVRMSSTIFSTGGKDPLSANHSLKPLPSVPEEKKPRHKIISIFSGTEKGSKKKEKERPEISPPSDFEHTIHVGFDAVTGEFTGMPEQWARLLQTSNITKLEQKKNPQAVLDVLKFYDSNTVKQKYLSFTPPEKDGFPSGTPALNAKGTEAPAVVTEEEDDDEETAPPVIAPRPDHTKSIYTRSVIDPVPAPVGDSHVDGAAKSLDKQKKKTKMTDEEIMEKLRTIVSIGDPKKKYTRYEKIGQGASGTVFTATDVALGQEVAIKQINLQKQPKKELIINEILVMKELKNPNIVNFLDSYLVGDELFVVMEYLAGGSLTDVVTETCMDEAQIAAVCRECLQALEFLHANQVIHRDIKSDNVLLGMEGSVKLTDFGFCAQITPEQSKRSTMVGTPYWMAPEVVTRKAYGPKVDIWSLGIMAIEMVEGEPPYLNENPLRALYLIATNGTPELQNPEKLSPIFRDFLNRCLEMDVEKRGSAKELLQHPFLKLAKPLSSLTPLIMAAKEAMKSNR

Molecular target: Yin Yang 1 (human (endogenous in MDA-MB-231 and BT549)) (UniProt P25490)
Assay: affinity purification with mass spectrometry; immunoprecipitation of endogenous YY1 with 20 ug anti-YY1 antibody (Pierce Classic Magnetic IP/Co-IP kit) from MDA-MB-231 and BT549 lysates, control IgG; SDS-PAGE, silver staining, bands excised, HPLC-MS; H/L ratio > 2.0

binding | Substance
binds | DEAD-box helicase 3 X-linked (from UniProt O00571 1-662)
binds | PAK2 (from UniProt Q13177 1-524)
binds | PTPN11 (from UniProt Q06124 1-593)
